# Experimental data published in PMC12431657, “Discovery and mechanistic insights of dibenzoylmethane as a broad spectrum inhibitor of coronavirus” (PLOS Pathogens, 2025).
# Most of the strong results are listed elsewhere, so they are rarer here than in the full data.
# What was measured:
# [1] = tested on: HCoV-229E; parameters: species or system Huh-7; HTS, protection from HCoV-229E induced cell death, luminescent cell viability (CellCounting-Lite 2.0), inhibition rate; details: 24 h post infection, 1 h compound pre-incubation; 10 µM; inhibitor
# [2] = tested on: HCoV-OC43; parameters: species or system RD; HTS, protection from HCoV-OC43 induced cell death, luminescent cell viability (CellCounting-Lite 2.0), inhibition rate; details: 24 h post infection, 1 h compound pre-incubation; 10 µM; inhibitor
structure (smiles),measurement,setting,value
Clc1ccc2c(c1)CCc1cccnc1C2=C1CCNCC1 [Desloratadine],229E Inhibition rate,[1],30.1%
same,OC43 Inhibition rate,[2],29.2%
